Experimental data as given in the supplement of paper PMC10735217.
Structures can show the parent of a compound that is named as a salt. Some of the results follow. Single values are uncertain here, since repeats match poorly.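 The human kidney-derived cells carry a stably integrated construct of eight TEAD-binding elements driving luciferase, read by luminescence in a drug-repurposing library screen. A compound counts as a hit when its signal is more than five robust Z scores above the plate mean.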

Test system: HEK293A TEAD-LUC reporter
Assay: TEAD-luciferase reporter activity (YAP activation), robust Z score vs plate; higher = stronger YAP/TEAD activation
Settings: 24 h

| Compound | TEAD-luciferase reporter activity (compound concentration: 200 nM) | TEAD-luciferase reporter activity (compound concentration: 2 uM) | TEAD-luciferase reporter activity (compound concentration: 10 uM) |
| --- | --- | --- | --- |
| C[C@@H]1CN(Cc2ncccn2)C[C@H]1c1nc2c(cnn2C2CCOCC2)c(=O)[nH]1 | inactive: 0.015 | inactive: -1.3 | inactive: -1.18 |
| O=C1NNc2nc(CN3Cc4ccccc4C3)nc3cccc1c23 | inactive: -1.69 | inactive: -2.19 | inactive: -0.941 |
| CN1C=CCC(C(=O)O[C@@H]2CC[C@H]3[C@@H]4CCc5cc(O)ccc5[C@H]4CC[C@@]23C)=C1 | inactive: -0.879 | inactive: 1.66 | inactive: 3.04 |
| O[C@@H]1[C@@H](O)[C@@H](O)O[C@@H]2COC(c3ccccc3)O[C@H]12 (some centres not stated) | inactive: 0.743 | inactive: 3.39 | inactive: 1.61 |
| O=C(c1ccc(F)cc1)C1CCN(CCCn2c(=O)[nH]c3cc(Cl)ccc32)CC1 [Milenperone] | inactive: 0.595 | inactive: -1.32 | inactive: -1.23 |
| COC(=O)c1cccnc1 [Methyl nicotinate] | inactive: 0.814 | inactive: -1.16 | inactive: 0.734 |
| C=C(C)[C@@H]1CC[C@]2(C(=O)OCC(N)(CO)CO)CC[C@]3(C)[C@H](CC[C@@H]4[C@@]5(C)CC[C@H](OC(C)=O)C(C)(C)[C@@H]5CC[C@]43C)[C@@H]12 | inactive: -2.41 | inactive: 1.27 | inactive: 0.0998 |
| CC1(C)CCC[C@](C)([C@H]2CC[C@]3(C)[C@@H]2[C@H](O)C[C@@H]2[C@@]4(C)CC[C@H](O)C(C)(C)[C@@H]4[C@H](O)C[C@]23C)O1 | inactive: -1.14 | inactive: 0.402 | inactive: -2.76 |
| C[C@H](CCC(=O)O)[C@H]1CC[C@H]2[C@@H]3[C@@H](OS(=O)(=O)O)C[C@@H]4C[C@H](OS(=O)(=O)O)CC[C@]4(C)[C@H]3CC[C@]12C [Ursulcholic acid] | inactive: 0.191 | inactive: 1.42 | inactive: -0.675 |
| COc1cc(Nc2c(C#N)cnc3cc(OCCCN4CCN(C)CC4)c(OC)cc23)c(Cl)cc1Cl [Bosutinib] | inactive: -3.27 | inactive: -2.64 | inactive: -3.22 |
| N#Cc1ccc(N(Cc2ccc(Br)cc2)n2cnnc2)cc1 | active: 10.9 | inactive: -1.2 | inactive: -0.921 |
| CN(C)CCOC(=O)NCCCCNC(=O)OCCN(C)C | inactive: -1.39 | inactive: -0.173 | inactive: 2.4 |
| O=C1CCC(N2C(=O)c3cccc(CNC(=O)C4CC4)c3C2=O)C(=O)N1 (configuration not stated) | inactive: -0.984 | inactive: 0.0354 | inactive: -0.95 |
| COc1cc(C2Oc3cc(C4Oc5cc(OC(C)=O)cc(OC(C)=O)c5C(=O)C4OC(C)=O)ccc3OC2COC(C)=O)ccc1OC(C)=O (configuration not stated) | inactive: -0.255 | inactive: -1.02 | inactive: 4.04 |
| CC(S)C(=O)NCC(=O)O (configuration not stated) [tiopronin] | inactive: -1.05 | inactive: -0.71 | active: 6.16 |
| O=C(CCCN1CCN(c2cc3ccccc3cn2)CC1)c1ccc(F)cc1 [cinuperone] | inactive: 3.05 | inactive: -0.627 | inactive: 2.66 |
| O=C(O)CC[C@H](NC(=O)[C@@H]1CC[C@@H](Oc2ccc(C(=O)c3ccccc3)c(Cl)c2Cl)C1)C(=O)O | inactive: -1.89 |  | inactive: -0.904 |
| Cn1nc(CO)nc1NCCCOc1cccc(CN2CCCCC2)c1 | inactive: -0.759 | inactive: -1.25 | inactive: -0.497 |
| COCC1=C(C(=O)OC(C)OC(=O)C(C)(C)C)N2C(=O)[C@@H](NC(=O)/C(=N\O)c3csc(N)n3)[C@H]2SC1 (some centres not stated) [cefdaloxime pentexil] | inactive: 2.66 | inactive: -0.849 | inactive: 0.828 |
| O=C(c1ccc(F)cc1)C1CCN(CCn2c(=S)[nH]c3ccccc3c2=O)CC1 [altanserin] |  | inactive: -1.26 |  |
| O=C(c1ccc(F)cc1)C1CCN(CCn2c(=S)[nH]c3ccccc3c2=O)CC1 [Altanserin] | inactive: -0.677 |  | inactive: -0.415 |
| Nc1nc(=O)n([C@@H]2O[C@H](CO)[C@@H](O)[C@@H]2F)cc1I [FIAC, Pharmos] | inactive: 2.77 | inactive: -0.103 | inactive: 4.43 |
| CC1=C(C(=O)OC(C)C)C(c2ccc3c(c2)OCO3)C(C(=O)OC(C)C)=C(C)N1 | inactive: -3.52 | inactive: -0.804 | inactive: -0.752 |
| CO/N=C(/C(=O)NC1C(=O)N2C(C(=O)OCOC(=O)C(C)(C)C)=C(Cn3nnc(C)n3)CS[C@H]12)c1csc(N)n1 (some centres not stated) [Cefteram Pivoxil] | inactive: -0.867 | inactive: -1.68 | inactive: 0.112 |
| CN(C)CCON=C1c2ccccc2CCc2ccccc21 | inactive: -0.207 | inactive: 1.93 | inactive: 1.69 |
| N#CN=c1scnn1C1OC(CO)C(O)C1O (configuration not stated) | inactive: -1.06 | inactive: -1.22 | inactive: -0.0091 |

Exported tab-delimited: entries from further up
Compound	TEAD-luciferase reporter activity (compound concentration: 200 nM)	TEAD-luciferase reporter activity (compound concentration: 2 uM)	TEAD-luciferase reporter activity (compound concentration: 10 uM)
CN1C=CCC(C(=O)O[C@@H]2CC[C@H]3[C@@H]4CCc5cc(O)ccc5[C@H]4CC[C@@]23C)=C1	inactive: -0.879	inactive: 1.66	inactive: 3.04
O[C@@H]1[C@@H](O)[C@@H](O)O[C@@H]2COC(c3ccccc3)O[C@H]12 (some centres not stated)	inactive: 0.743	inactive: 3.39	inactive: 1.61
COC(=O)c1cccnc1 [Methyl nicotinate]	inactive: 0.814	inactive: -1.16	inactive: 0.734
CC1(C)CCC[C@](C)([C@H]2CC[C@]3(C)[C@@H]2[C@H](O)C[C@@H]2[C@@]4(C)CC[C@H](O)C(C)(C)[C@@H]4[C@H](O)C[C@]23C)O1	inactive: -1.14	inactive: 0.402	inactive: -2.76
COc1cc(Nc2c(C#N)cnc3cc(OCCCN4CCN(C)CC4)c(OC)cc23)c(Cl)cc1Cl [Bosutinib]	inactive: -3.27	inactive: -2.64	inactive: -3.22
O=C1CCC(N2C(=O)c3cccc(CNC(=O)C4CC4)c3C2=O)C(=O)N1 (configuration not stated)	inactive: -0.984	inactive: 0.0354	inactive: -0.95
CC(S)C(=O)NCC(=O)O (configuration not stated) [tiopronin]	inactive: -1.05	inactive: -0.71	active: 6.16
O=C(CCCN1CCN(c2cc3ccccc3cn2)CC1)c1ccc(F)cc1 [cinuperone]	inactive: 3.05	inactive: -0.627	inactive: 2.66
O=C(O)CC[C@H](NC(=O)[C@@H]1CC[C@@H](Oc2ccc(C(=O)c3ccccc3)c(Cl)c2Cl)C1)C(=O)O	inactive: -1.89		inactive: -0.904
COCC1=C(C(=O)OC(C)OC(=O)C(C)(C)C)N2C(=O)[C@@H](NC(=O)/C(=N\O)c3csc(N)n3)[C@H]2SC1 (some centres not stated) [cefdaloxime pentexil]	inactive: 2.66	inactive: -0.849	inactive: 0.828
Nc1nc(=O)n([C@@H]2O[C@H](CO)[C@@H](O)[C@@H]2F)cc1I [FIAC, Pharmos]	inactive: 2.77	inactive: -0.103	inactive: 4.43
CC1=C(C(=O)OC(C)C)C(c2ccc3c(c2)OCO3)C(C(=O)OC(C)C)=C(C)N1	inactive: -3.52	inactive: -0.804	inactive: -0.752
CO/N=C(/C(=O)NC1C(=O)N2C(C(=O)OCOC(=O)C(C)(C)C)=C(Cn3nnc(C)n3)CS[C@H]12)c1csc(N)n1 (some centres not stated) [Cefteram Pivoxil]	inactive: -0.867	inactive: -1.68	inactive: 0.112
N#CN=c1scnn1C1OC(CO)C(O)C1O (configuration not stated)	inactive: -1.06	inactive: -1.22	inactive: -0.0091

Remaining list, next part:

| Compound | TEAD-luciferase reporter activity (compound concentration: 200 nM) | TEAD-luciferase reporter activity (compound concentration: 2 uM) | TEAD-luciferase reporter activity (compound concentration: 10 uM) |
| --- | --- | --- | --- |
| Oc1c(Cl)cc(Cl)c2cccnc12 [Chloroxine] | inactive: -0.896 |  | inactive: -0.0774 |
| Oc1c(Cl)cc(Cl)c2cccnc12 |  | inactive: 0.0733 |  |
| Cc1cccc(N2CC(CO)OC2=O)c1 (configuration not stated) [toloxatone] | inactive: -1.96 | inactive: 1.87 | inactive: -2.36 |
| CC(C)(C#N)c1cc(Cn2cncn2)cc(C(C)(C)C#N)c1 | inactive: 0.453 |  | inactive: 0.0914 |
| CC(C)(C#N)c1cc(Cn2cncn2)cc(C(C)(C)C#N)c1 [anastrozole] |  | inactive: -1.1 |  |
| CCOC(=O)c1c(C)cc2c(CO)n[nH]c(=O)c2c1C [oxagrelate] | inactive: -1.17 | inactive: 0.0515 | inactive: -0.157 |
| COc1ccc2c3c1O[C@H]1C[C@@H](O)C=C[C@@]31CCN(C)C2 [galantamine] |  | inactive: -1.42 |  |
| COc1ccc2c3c1O[C@H]1C[C@@H](O)C=C[C@@]31CCN(C)C2 [Galanthamine] | inactive: 2.2 |  | inactive: -1.19 |
| C#CC(OC(=O)NC1CCCCC1)(c1ccccc1)c1ccccc1 | inactive: 1.68 | inactive: -0.609 | inactive: 0.495 |
| CC(C)N1CCN(c2ccc(N3CCN(c4ccc(OC[C@@H]5OC[C@@](Cn6cncn6)(c6ccc(F)cc6F)O5)cc4)CC3)cc2)C1=O | inactive: -2.36 | inactive: -0.484 | inactive: 0.0651 |
| O=C(O)[C@H](O)[C@@H](O)[C@H](O[C@@H]1O[C@H](CO)[C@H](O)[C@H](O)[C@H]1O)[C@H](O)CO [Lactobionic acid] | inactive: -1.13 | inactive: 1.37 | inactive: -0.667 |
| CCc1nc(N)nc(N)c1-c1ccc(Cl)c(N=[N+]=[N-])c1 | inactive: 2.11 | inactive: 0.197 | inactive: -0.427 |
| CC[N+]1(CC)CCC(=C(c2ccccc2)c2ccccc2)C1C (configuration not stated) | inactive: -0.57 | inactive: -0.494 | inactive: 0.987 |
| COCCOC(=O)C1=C(C)NC(C)=C(C(=O)OC(C)C)C1c1cccc([N+](=O)[O-])c1 (configuration not stated) | inactive: -0.0766 |  | inactive: -0.927 |
| COCCOC(=O)C1=C(C)NC(C)=C(C(=O)OC(C)C)C1c1cccc([N+](=O)[O-])c1 (configuration not stated) [Nimodipine] |  | inactive: -0.339 |  |
| C[C@]12CC[C@@H]3c4ccc(O)cc4CC[C@H]3[C@@H]1CC[C@@H]2OC(=O)CCC1CCCC1 [Estradiol cypionate] | inactive: -0.68 |  | inactive: -1.38 |
| C[C@]12CC[C@@H]3c4ccc(O)cc4CC[C@H]3[C@@H]1CC[C@@H]2OC(=O)CCC1CCCC1 [Estradiol (cypionate)] |  | inactive: 0.0757 |  |
| CCCc1ccc(NS(=O)(=O)Cc2ccccc2)c(=O)n1CC(=O)NCCc1cccnc1 | inactive: -0.661 | inactive: 0.491 | inactive: -0.344 |
| CCCc1cc(=O)[nH]c(=S)[nH]1 [Propylthiouracil] | inactive: 0.883 | inactive: 1.07 | inactive: 2.31 |
| O=C(/C=C/c1cccc(F)c1)NC1CC1 [cinflumide] | inactive: -0.802 | inactive: 0.38 | inactive: -0.915 |
| CCN(CC)CC/C(=N\OC(=O)Nc1ccc(OC)cc1)c1ccccc1 [Anidoxime hydrochloride] | inactive: -0.582 | inactive: -0.447 | inactive: -0.078 |
| CC(=O)N[C@H](Cc1ccc2ccccc2c1)C(=O)N[C@H](Cc1ccc(Cl)cc1)C(=O)N[C@H](Cc1cccnc1)C(=O)N[C@@H](CO)C(=O)N(C)[C@@H](Cc1ccc(O)cc1)C(=O)N[C@H](CC(N)=O)C(=O)N[C@@H](CC(C)C)C(=O)N[C@@H](CCCCNC(C)C)C(=O)N1CCC[C@H]1C(=O)N[C@H](C)C(N)=O [Abarelix] | inactive: -0.834 | inactive: -0.369 | inactive: 0.0662 |
| O=C(Nc1cnn2ccc(N3CCCC3c3cc(F)ccc3F)nc12)N1CC[C@H](O)C1 (some centres not stated) | inactive: 0.173 | inactive: -1.15 | inactive: 2.83 |
| COCCCCCCCCCN1C[C@H](O)[C@@H](O)[C@H](O)[C@H]1CO | inactive: -0.0249 | inactive: 0.927 | inactive: -0.615 |
| Nc1nc(-n2cc(C(=O)O)c(=O)c3cc(F)c(N4CC(O)C4)c(Cl)c32)c(F)cc1F [delafloxacin] | inactive: -1.49 | inactive: -0.441 | inactive: 1.69 |
| CC(C)C(NC(=O)C(CO)NC(=O)C(CCCNC(=N)N)NC(=O)C(Cc1ccccc1)NC(=O)CC1CCCCC1)C(=O)NC(CCC(N)=O)C(N)=O (configuration not stated) | inactive: -0.891 | inactive: 1.35 | inactive: 4.64 |
